The source of these data is article PMC12384813 (2025).

A short description of series [1]: general procedure: Fmoc solid-phase peptide synthesis; 2-chlorotrityl chloride resin (loading capacity: 0.8 mmol/g); HATU/DIPEA; PyBOP/HOBt/DIPEA for cyclization.
A short description of series [2]: general procedure: Fmoc solid-phase peptide synthesis; 2-chlorotrityl chloride resin; HATU/DIPEA; PyBOP/HOBt/DIPEA for cyclization. The settings on record: whole synthesis.

In the case of ^natCu-NOTA-c(RGDfK), the step yield in series [1] (late stage modification step) was 90%. The “final purity (method not given)” value in series [1] (late stage modification step, analytical HPLC (Agilent 1200, Zorbax Eclipse XDB C18, diode array UV-Vis)) worked out at 99%. For NOTA-TP-c(RGDfK) [5], the isolated yield in series [2] is given as 2–3%. Regarding NOTA-c(RGDfK), the isolated yield in series [2] turned out to be 28% yield. Besides, the “final HPLC purity” value in series [1] (whole synthesis, analytical HPLC (Agilent 1200, Zorbax Eclipse XDB C18, diode array UV-Vis)) amounted to 99%.
